# Measurements as given in article PMC7098486.
# By UniProt entry, the sequences of proteins in these tests, tags left out.
# UniProt Q15388: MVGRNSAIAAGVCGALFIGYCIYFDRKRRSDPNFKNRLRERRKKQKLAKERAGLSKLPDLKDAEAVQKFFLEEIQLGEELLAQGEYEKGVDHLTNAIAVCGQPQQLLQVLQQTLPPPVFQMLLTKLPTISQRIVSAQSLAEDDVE
# UniProt Q70CQ3: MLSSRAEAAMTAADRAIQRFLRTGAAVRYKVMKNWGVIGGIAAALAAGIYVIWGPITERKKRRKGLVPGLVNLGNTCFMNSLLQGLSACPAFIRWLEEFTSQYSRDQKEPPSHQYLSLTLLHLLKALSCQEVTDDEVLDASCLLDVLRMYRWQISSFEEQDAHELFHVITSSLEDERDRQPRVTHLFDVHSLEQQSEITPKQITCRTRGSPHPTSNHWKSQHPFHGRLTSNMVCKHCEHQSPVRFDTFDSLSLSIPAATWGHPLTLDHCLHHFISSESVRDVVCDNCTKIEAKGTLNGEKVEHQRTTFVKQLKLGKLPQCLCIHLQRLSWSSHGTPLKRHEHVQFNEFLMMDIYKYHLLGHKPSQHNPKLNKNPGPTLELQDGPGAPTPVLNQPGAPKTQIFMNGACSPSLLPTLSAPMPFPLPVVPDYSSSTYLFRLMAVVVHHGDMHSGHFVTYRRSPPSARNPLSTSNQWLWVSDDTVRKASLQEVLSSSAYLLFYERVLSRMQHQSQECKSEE
# Results are given in words; binding and its absence hold for the method and conditions named. Binding seen in cells or lysates may run through a third protein. Some binding calls cover weakened binding; strength is not graded here.
# Biological target: TOMM20 (human (endogenous in iNeurons from H9 ES cells)) (UniProt Q15388)
# Test: co-IP; crude mitochondria of USP30+/+ or USP30-/- iNeurons solubilised with 1% digitonin; anti-TOMM20, anti-USP30 or control IgG cross-linked to Protein A resin; 50 ug mitoprep, 4 h at 4 C in 1xMSH buffer with 0.1% digitonin; washes with 0.1% digitonin and 200 mM NaCl; SDS-PAGE and immunoblotting
substance,measurement,value
USP30 (from UniProt Q70CQ3 1-517) (enzyme),binding,binds
